# Laboratory results: the supplement of paper PMC12819154, “High-throughput peptide-centric local stability assay extends protein–ligand identification to membrane proteins, tissues and bacteria” (Nature Structural & Molecular Biology, 2025)
# By UniProt entry, the sequences of proteins in these tests, tags left out. Where a name states a change or a piece, a line headed by the entry shows the natural chain unless it says otherwise.
# UniProt Q2YD98, whole entry: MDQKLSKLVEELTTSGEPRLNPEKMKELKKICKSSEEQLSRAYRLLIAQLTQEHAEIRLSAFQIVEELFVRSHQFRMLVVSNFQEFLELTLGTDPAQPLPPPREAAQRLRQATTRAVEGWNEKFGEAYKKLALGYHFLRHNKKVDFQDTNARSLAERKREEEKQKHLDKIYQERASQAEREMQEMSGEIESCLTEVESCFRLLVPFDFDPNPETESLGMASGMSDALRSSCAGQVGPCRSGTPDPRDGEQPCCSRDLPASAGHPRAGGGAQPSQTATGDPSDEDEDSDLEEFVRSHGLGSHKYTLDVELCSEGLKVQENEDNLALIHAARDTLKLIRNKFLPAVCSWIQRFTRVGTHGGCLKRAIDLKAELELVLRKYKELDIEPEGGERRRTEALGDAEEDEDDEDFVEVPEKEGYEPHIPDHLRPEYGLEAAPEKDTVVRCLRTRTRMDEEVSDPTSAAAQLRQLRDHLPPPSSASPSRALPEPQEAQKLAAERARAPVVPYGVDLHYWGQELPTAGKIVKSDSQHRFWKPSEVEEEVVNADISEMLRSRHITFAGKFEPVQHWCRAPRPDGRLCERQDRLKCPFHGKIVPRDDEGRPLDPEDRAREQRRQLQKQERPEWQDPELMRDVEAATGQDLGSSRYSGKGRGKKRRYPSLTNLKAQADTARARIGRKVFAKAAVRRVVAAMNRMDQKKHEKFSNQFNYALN
# UniProt Q15027: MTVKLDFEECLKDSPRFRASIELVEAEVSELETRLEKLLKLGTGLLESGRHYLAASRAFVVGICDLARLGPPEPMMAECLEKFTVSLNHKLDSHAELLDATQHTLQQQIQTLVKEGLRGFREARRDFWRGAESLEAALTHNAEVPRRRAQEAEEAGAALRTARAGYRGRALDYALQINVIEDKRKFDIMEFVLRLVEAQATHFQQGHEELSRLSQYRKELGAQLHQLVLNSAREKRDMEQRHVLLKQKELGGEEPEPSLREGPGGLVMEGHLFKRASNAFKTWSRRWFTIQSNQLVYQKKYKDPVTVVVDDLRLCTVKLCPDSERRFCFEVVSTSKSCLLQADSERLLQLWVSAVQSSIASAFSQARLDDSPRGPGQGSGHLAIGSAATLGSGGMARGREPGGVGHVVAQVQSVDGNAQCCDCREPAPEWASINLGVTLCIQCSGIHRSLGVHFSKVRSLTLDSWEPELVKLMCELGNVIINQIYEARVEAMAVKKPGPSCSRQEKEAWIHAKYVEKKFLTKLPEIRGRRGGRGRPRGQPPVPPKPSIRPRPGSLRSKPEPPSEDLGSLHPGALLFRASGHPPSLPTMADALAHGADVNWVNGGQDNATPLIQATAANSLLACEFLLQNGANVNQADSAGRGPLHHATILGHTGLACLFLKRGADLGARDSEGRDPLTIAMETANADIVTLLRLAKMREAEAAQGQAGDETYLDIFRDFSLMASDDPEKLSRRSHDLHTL
# UniProt Q16222: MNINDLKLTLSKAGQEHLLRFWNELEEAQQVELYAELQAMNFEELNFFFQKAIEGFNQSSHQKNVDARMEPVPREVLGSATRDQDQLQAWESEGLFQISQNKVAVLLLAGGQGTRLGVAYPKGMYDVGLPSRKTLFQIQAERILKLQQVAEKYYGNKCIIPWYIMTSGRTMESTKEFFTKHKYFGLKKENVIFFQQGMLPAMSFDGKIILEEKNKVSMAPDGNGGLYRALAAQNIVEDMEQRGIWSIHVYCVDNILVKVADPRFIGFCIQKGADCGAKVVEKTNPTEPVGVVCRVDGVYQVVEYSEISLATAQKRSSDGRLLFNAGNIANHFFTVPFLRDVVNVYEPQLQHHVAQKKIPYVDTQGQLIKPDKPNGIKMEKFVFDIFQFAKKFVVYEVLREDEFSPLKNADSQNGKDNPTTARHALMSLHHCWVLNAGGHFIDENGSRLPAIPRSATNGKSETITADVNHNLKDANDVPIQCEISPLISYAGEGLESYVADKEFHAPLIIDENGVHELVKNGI
# UniProt Q17RS7: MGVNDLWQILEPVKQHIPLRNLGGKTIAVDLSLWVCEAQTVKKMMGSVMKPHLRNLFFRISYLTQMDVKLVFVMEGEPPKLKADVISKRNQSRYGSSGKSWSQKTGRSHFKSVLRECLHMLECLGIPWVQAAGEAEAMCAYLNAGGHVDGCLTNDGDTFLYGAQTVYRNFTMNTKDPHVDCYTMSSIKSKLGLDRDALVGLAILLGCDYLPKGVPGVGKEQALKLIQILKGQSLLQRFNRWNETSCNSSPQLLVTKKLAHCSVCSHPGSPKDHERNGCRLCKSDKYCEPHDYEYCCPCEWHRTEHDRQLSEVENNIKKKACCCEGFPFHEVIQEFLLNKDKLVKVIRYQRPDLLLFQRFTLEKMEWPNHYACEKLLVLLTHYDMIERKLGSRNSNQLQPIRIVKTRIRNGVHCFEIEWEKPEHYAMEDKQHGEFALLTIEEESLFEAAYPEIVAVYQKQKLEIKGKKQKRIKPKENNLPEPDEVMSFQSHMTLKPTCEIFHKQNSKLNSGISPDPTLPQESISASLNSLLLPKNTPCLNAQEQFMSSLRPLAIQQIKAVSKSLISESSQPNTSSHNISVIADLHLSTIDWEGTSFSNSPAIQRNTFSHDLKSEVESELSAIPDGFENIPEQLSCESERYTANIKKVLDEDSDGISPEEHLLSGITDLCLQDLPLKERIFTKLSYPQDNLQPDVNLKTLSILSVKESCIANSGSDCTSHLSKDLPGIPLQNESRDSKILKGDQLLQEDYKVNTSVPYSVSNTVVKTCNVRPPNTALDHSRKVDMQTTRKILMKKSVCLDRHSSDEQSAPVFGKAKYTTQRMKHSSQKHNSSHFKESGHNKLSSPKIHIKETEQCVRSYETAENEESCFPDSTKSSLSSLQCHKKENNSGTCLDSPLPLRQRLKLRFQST
# UniProt Q15208: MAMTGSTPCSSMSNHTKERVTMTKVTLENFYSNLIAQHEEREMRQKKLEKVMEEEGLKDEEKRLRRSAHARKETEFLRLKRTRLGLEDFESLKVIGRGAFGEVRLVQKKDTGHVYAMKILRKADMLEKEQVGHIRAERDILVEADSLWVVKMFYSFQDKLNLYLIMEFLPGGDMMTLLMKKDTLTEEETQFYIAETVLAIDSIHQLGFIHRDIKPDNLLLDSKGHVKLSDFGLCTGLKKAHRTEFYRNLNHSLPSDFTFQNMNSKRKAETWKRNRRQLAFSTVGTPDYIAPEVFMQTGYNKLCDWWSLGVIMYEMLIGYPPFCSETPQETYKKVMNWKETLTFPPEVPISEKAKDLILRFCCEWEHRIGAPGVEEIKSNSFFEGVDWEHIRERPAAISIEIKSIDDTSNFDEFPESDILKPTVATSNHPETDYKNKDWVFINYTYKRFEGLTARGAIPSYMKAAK
# UniProt Q16795, whole entry: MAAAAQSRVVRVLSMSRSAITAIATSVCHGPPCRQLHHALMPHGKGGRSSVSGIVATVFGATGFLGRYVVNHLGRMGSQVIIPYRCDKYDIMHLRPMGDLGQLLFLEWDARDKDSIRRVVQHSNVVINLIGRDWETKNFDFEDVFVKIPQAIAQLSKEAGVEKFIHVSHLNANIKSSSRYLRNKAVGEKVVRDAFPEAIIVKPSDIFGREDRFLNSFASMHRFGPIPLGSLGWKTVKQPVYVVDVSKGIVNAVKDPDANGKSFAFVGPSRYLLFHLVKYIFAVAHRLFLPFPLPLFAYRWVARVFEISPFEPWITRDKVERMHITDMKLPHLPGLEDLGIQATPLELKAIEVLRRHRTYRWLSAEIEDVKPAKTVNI
# UniProt Q16881, whole entry: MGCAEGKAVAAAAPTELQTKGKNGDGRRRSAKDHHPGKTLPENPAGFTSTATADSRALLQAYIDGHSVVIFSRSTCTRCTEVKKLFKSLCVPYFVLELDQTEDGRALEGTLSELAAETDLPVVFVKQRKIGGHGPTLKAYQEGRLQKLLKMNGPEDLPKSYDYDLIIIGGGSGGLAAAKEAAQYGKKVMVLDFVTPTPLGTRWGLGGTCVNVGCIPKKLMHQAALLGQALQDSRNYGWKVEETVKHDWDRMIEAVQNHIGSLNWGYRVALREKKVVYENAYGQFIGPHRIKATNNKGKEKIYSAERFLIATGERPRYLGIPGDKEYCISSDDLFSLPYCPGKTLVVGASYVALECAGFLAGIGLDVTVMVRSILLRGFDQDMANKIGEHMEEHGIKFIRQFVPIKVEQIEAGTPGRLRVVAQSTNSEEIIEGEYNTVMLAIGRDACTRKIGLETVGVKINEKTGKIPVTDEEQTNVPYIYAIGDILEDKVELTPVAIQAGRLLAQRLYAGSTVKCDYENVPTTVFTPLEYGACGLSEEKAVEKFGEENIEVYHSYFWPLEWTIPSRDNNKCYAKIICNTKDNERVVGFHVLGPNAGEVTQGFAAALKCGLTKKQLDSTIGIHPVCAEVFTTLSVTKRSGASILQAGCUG
# UniProt Q16854: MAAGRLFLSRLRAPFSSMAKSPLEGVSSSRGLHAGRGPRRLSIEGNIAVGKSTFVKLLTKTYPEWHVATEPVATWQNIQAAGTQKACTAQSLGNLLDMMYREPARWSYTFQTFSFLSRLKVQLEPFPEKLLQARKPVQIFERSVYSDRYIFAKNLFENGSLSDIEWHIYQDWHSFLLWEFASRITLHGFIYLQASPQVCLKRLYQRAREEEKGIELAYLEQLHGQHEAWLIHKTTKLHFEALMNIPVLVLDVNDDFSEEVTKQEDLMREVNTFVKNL
# Some of the results follow. Most values lie at the level of the controls, where differences are scatter.
# Compound: Cc1nc(Nc2ncc(C(=O)Nc3c(C)cccc3Cl)s2)cc(N2CCN(CCO)CC2)n1 [dasatinib]
# Experiment: log2 fold change of tryptic peptide abundance, ligand vs vehicle (limited proteolysis) (log2 ratio); higher = more trypsin-susceptible (destabilized)
# Settings: ligand concentration: 5 uM; sample: K562 cleared lysate
row,Target,log2 fold change
1,"UniProt Q2YD98 (peptide sequence: LVEELTTSGEPR, peptide start residue: 8)",-0.253
2,"ACAP1 (peptide sequence: DFSLMASDDPEKLSR, peptide start residue: 718) (UniProt Q15027)",0.415
3,"UAP1 (peptide sequence: DVVNVYEPQLQHHVAQKK, peptide start residue: 340) (UniProt Q16222)",0.835
4,"GEN1 (peptide sequence: TCNVRPPNTALDHSR, peptide start residue: 765) (UniProt Q17RS7)",0.349
5,"UniProt Q15208 (peptide sequence: VMEEEGLKDEEK, peptide start residue: 51)",-0.474
6,"NDUFA9 (peptide sequence: WLSAEIEDVKPAK, peptide start residue: 361) (UniProt Q16795)",0.685
7,"TXNRD1 (peptide sequence: LMHQAALLGQALQDSR, peptide start residue: 219) (UniProt Q16881)",0.462
8,"DGUOK (peptide sequence: SPLEGVSSSR, peptide start residue: 21) (UniProt Q16854)",0.018
